In patent US20240043534A1:
These are yes or no findings as the source states them, for the method shown. Binding can be weak; no strength is given.

Target: N-terminal methyltransferase domain of the Zika virus bifunctional NS5 enzyme (MT ZIKV) (Zika virus)
Assay: SPR (FIG. 7C)

| Binder | binding |
| --- | --- |
| Z2C4 ZIKV LRT-Fab (Fab, V domains shown) VH: EVQLVESGGGLVQPGGSLRLSCAASGFNVYYSSIHWVRQAPGKGLEWVAYIYPSSGSTYYADSVKGRFTISADTSKNTAYLQMNSLRAEDTAVYYCARSWSPYGMDYWGQGTLVTVSS VL: DIQMTQSPSSLSASVGDRVTITCRASQSVSSAVAWYQQKPGKAPKLLIYSASSLYSGVPSRFSGSRSGTDFTLTISSLQPEDFATYYCQQWYDSLITFGQGTKVEIKR | binds |
| Z2G6 ZIKV LRT-Fab (Fab, V domains shown) VH: EVQLVESGGGLVQPGGSLRLSCAASGFNVYYYYIHWVRQAPGKGLEWVASIYSYSGYTYYADSVKGRFTISADTSKNTAYLQMNSLRAEDTAVYYCAREGVWWEDEFYPGLDYWGQGTLVTVSS VL: DIQMTQSPSSLSASVGDRVTITCRASQSVSSAVAWYQQKPGKAPKLLIYSASSLYSGVPSRFSGSRSGTDFTLTISSLQPEDFATYYCQQSWSSLFTFGQGTKVEIKR | binds |
